# Among all 290,000 compounds or so, about 110 (0.038%) were called active. The shares of active, inactive and inconclusive entries below differ from those in the screen. The call rests on the fitted dose curve; in most records, active means well fitted inhibition curve with a large enough effect in the polarisation, with a control signal flat (not every such curve was filed as active); inconclusive means small, poorly fitted or top-dose-only effect, or effect the other way, or a change in a side signal; inactive means no such curve, though single readings can be large or run the other way; the % refers to the polarisation. Potencies of inconclusive entries are doubtful fits and often do not repeat. A note “side channel” means that the fit belongs to a control or component signal, not to the main read-out.
# Sequences of proteins named here, by UniProt entry; tags and fusion partners are left off.
# UniProt Q03164, whole entry, looked up: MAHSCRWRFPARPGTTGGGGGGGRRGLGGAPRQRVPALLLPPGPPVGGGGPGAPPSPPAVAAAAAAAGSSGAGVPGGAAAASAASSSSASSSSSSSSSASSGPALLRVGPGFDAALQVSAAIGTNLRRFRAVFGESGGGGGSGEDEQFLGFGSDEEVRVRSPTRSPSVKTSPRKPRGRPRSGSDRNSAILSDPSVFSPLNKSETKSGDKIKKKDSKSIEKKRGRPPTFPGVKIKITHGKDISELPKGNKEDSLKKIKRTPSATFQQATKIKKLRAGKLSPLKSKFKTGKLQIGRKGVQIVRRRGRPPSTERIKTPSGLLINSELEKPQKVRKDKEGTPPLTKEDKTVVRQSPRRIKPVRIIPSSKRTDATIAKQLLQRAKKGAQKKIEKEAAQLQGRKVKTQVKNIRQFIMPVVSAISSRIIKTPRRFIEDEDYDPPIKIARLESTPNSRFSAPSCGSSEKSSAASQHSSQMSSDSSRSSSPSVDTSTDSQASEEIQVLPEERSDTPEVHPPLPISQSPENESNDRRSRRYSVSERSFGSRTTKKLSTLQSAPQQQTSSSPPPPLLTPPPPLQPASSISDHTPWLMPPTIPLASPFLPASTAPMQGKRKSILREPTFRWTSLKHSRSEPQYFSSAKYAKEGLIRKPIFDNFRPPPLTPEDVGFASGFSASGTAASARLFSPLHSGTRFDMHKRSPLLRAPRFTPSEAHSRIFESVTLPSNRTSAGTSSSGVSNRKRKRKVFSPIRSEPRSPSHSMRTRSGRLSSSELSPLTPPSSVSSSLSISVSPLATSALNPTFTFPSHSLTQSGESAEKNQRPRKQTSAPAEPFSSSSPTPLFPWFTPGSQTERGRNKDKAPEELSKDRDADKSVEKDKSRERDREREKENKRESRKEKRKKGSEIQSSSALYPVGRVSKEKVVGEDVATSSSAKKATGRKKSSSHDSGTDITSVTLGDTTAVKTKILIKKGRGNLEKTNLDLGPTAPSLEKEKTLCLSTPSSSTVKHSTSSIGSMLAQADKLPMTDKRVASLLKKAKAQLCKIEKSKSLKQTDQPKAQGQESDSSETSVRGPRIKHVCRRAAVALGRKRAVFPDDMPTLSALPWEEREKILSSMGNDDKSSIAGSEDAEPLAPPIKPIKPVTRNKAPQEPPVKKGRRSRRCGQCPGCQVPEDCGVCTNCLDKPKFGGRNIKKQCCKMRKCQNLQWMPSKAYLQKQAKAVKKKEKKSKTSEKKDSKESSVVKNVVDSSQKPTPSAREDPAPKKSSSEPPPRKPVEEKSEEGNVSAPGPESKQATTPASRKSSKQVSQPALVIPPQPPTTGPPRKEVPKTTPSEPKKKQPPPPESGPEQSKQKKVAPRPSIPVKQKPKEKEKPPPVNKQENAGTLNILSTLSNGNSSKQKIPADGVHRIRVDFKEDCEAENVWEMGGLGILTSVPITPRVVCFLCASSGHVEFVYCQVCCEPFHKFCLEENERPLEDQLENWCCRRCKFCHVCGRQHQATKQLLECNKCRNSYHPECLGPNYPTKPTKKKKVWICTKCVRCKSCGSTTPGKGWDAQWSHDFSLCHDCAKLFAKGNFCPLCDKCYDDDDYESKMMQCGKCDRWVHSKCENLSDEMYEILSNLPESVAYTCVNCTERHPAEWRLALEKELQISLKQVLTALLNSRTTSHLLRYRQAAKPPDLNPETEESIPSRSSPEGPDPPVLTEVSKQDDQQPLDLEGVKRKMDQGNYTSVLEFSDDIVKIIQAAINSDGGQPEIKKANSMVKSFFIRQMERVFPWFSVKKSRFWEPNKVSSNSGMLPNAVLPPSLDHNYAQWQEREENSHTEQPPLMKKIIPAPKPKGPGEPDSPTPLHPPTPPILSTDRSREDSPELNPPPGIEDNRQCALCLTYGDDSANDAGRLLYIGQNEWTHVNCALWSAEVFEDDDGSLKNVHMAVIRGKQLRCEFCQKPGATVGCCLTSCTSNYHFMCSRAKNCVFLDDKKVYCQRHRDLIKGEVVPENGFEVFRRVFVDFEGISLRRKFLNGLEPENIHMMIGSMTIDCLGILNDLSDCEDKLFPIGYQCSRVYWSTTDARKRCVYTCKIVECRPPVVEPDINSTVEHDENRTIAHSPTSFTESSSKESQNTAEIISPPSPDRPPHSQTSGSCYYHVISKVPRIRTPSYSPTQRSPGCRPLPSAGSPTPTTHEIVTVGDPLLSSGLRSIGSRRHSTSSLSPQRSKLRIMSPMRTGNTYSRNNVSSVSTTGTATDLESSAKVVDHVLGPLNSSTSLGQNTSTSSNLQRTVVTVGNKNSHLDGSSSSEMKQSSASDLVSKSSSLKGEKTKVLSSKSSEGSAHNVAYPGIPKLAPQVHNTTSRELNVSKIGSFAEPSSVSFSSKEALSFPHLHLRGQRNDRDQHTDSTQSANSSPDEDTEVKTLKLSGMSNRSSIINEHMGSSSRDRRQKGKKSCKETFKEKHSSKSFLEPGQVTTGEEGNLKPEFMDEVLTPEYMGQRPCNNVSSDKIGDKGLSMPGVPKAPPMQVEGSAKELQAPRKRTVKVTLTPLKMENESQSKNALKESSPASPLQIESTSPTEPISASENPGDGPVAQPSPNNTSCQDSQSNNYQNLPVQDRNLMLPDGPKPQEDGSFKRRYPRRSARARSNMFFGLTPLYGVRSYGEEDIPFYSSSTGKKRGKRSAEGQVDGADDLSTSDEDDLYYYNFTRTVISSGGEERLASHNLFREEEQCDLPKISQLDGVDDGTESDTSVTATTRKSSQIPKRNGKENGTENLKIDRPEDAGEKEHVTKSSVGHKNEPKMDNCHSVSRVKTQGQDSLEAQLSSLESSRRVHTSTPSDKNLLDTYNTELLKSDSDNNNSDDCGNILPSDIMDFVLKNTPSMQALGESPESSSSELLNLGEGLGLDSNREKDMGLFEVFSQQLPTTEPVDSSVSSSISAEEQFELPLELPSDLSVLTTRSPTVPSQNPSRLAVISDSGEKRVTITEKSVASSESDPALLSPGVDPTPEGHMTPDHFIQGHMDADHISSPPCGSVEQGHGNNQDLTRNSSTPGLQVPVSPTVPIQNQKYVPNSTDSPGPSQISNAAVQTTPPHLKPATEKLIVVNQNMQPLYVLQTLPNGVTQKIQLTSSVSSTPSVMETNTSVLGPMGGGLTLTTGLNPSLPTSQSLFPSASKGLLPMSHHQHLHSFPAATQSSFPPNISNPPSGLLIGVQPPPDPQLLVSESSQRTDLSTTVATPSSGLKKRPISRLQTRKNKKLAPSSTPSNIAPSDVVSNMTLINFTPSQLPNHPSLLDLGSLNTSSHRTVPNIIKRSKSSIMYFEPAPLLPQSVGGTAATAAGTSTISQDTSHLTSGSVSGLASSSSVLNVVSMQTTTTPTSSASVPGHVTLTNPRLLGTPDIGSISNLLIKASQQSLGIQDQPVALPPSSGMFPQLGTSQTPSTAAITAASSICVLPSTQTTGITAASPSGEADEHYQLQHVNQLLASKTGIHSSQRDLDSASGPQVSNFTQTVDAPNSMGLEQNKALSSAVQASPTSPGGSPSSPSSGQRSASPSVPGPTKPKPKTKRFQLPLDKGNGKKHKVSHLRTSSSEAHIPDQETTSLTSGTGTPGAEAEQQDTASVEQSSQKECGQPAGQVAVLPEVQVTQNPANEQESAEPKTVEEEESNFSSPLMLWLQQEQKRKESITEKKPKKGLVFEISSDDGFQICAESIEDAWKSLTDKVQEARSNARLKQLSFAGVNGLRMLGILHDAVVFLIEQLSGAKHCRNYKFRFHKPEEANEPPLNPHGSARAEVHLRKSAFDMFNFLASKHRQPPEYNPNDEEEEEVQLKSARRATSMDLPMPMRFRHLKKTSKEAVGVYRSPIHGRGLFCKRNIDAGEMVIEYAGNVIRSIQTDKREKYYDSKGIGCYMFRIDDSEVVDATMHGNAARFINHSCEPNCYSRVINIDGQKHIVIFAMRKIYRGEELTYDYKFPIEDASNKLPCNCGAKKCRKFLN
# Biological target: Histone-lysine N-methyltransferase 2A (Homo sapiens) (UniProt Q03164)
# Experiment: qHTS Fluorescence Polarization Assay for Inhibitors of MLL CXXC domain - DNA interaction
# Conditions: MLL-CXXC / FITC-HOXA9 DNA fluorescence polarization; activity change, negative = inhibition: at 115 µM (top of the series)
# How it was run: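 Steps: dispense CXXC domain solution (7 uM) → pin compounds or unlabeled HOX-A9 DNA control → 5 min ambient → add FLSN-HOX-A9 solution (50 nM) → spin → 30 min ambient → fluorescence polarization. Tris pH 7.5/NaCl/DTT/BSA buffer.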
# Potency means the concentration at half of the fitted maximal effect.
SMILES,Potency,"activity change, negative = inhibition"
COc1ccc(OC)c2sc(NC(=O)c3ccc(S(=O)(=O)N4CCOCC4)cc3)nc12,inactive,
CCOC(=O)CCSc1nc(C)cc(C(F)(F)F)c1C#N,"inconclusive: 89.1 µM [fluorescent, side channel, single point]",
Cc1ccccc1C(=O)Nn1cnc2ccccc2c1=O,"inconclusive: 1.41 µM [fluorescent, side channel, full curve, poor fit]",
COc1cc(/C=N/NC(=O)NC23CC4CC(CC(C4)C2)C3)ccc1O,"inconclusive: 6.31 µM [inhibitor, partial curve]",
O=C1CN(C(=O)c2c(F)cccc2F)C(c2ccccc2)c2cc(Br)ccc2N1 (stereo not given),"inconclusive: 14.1 µM [inhibitor, single point]",
CC(=O)NC(O)C(=O)c1ccco1 (stereo not given),"inconclusive: 35.5 µM [fluorescent, side channel, single point]",
N#CC(Cc1ccc(O)c(O)c1)C(=O)N1CCc2ccccc21 (stereo not given),"inconclusive: 14.1 µM [fluorescent, side channel, single point]",
O=C(Nc1ccnn1C1CCN(Cc2ccc(CO)o2)CC1)c1ccccc1Cl,"inconclusive: 11.2 µM [fluorescent, side channel, single point]",
O=C(CSc1nnc(Cc2cccs2)n1-c1ccccc1)NCc1ccc2c(c1)OCO2,inactive,
CCCn1c(=O)c(C(=O)NCc2ccccc2)c(O)c2ccccc21,inactive,
CC1CCCN(C(=O)c2ccccc2OC2CCN(S(C)(=O)=O)CC2)C1 (stereo not given),inactive,
NC(=O)c1ccsc1N,inactive,
CCn1c(C(C)NS(=O)(=O)c2ccc(Cl)cc2)n[nH]c1=S (stereo not given),"inconclusive: 8.91 µM [quencher, side channel, single point]",
Cc1cc(=O)[nH]c(-c2ccccc2)n1,inactive,
COc1cccc(OC)c1C(=O)N1CCN(Cc2ccccc2C(F)(F)F)CC1,inactive,
CCN(CC)CCNC(=S)Nc1ccc2nc(N3CCN(C)CC3)cc(C)c2c1,"inconclusive: 4.47 µM [fluorescent, side channel, partial curve]",
CCC(C(=O)N1CCC(C(N)=O)CC1)n1nc(C)n2c(cc3occc32)c1=O (stereo not given),"inconclusive: 8.91 µM [quencher, side channel, single point]",
CC1=C(C(=O)OCC2CCCO2)C(c2ccccc2)C2=C(CCCC2=O)N1 (stereo not given),inactive,
CC(=O)Nc1ccc(NC(=O)c2cc(-n3cnnc3)ccc2Cl)cc1,"inconclusive: 35.5 µM [fluorescent, side channel, single point]",
CCOC(=O)C1CN(S(C)(=O)=O)c2cc(CC(=O)OC)ccc2O1 (stereo not given),"inconclusive: 63.1 µM [quencher, side channel, single point]",
O=[N+]([O-])c1ccc(/C=C/C2=NN(c3ccccc3)C(c3ccco3)C2)cc1 (stereo not given),"inconclusive: 3.16 µM [fluorescent, full curve]",

SMILES,Potency,"activity change, negative = inhibition"
COc1ccc(/C=C2/C(=O)ON=C2C)cc1Cl,"inconclusive: 11.2 µM [fluorescent, side channel, single point]",
CCN(CC)CCCN(C(=O)c1ccc(Br)cc1)c1nc(-c2ccc(OC)cc2)cs1,"inconclusive: 22.4 µM [quencher, side channel, partial curve]",
CS(=O)(=O)c1ccc(C(=O)Nc2ccc(N3CCCCC3)cc2)c(Cl)c1,,inconclusive: 1.73% [phenotype inactive]
Cc1cc(C)n(-c2ccc(NC(=O)C3CCN(Cc4cc(C)c(C)o4)CC3)cc2)n1,"inconclusive: 35.5 µM [fluorescent, side channel, single point]",
COc1ccc(CCN=C(N)NS(=O)(=O)c2ccc(C)c(C)c2)cc1OC,"inconclusive: 14.1 µM [fluorescent, side channel, single point]",
Cn1c2ccc(F)cc2c2nc3ccccc3nc21,"inconclusive: 25.1 µM [fluorescent, side channel, partial curve]",
COc1ccccc1C(=O)Nc1ccnn1C1CCN(CCCC2CCCC2)CC1,inactive,
CCOc1ccc(-n2cc(-c3ccccc3)c3c(SC(C)C(=O)OC)ncnc32)cc1 (stereo not given),inactive,
CN(CCO)c1ncnc2c1sc1nc(N3CCOCC3)c3c(c12)CCC3,"inconclusive: 25.1 µM [quencher, side channel, single point]",
C=CCSc1nnc2c(n1)OC(c1ccco1)Nc1ccccc1-2 (stereo not given),"inconclusive: 6.31 µM [fluorescent, side channel, full curve, poor fit]",
O=C(NNc1ccc([N+](=O)[O-])cc1)c1ccco1,"inconclusive: 12.6 µM [fluorescent, side channel, full curve]",
COc1ccc(-c2nc(CSCC(=O)NCCC3=CCCCC3)c(C)o2)cc1OC,inactive,
COc1ccc(NC(=O)CC(C)n2ccnc2)cc1 (stereo not given),"inconclusive: 15.8 µM [inhibitor, single point]",
Cc1[nH][nH]c(=O)c1C(c1ccc(-c2ccccc2C(=O)O)o1)c1c(C)[nH][nH]c1=O,"inconclusive: 28.2 µM [inhibitor, partial curve]",
O=Cc1cn(-c2ccccc2)nc1-c1cc2c(ccc3ccccc32)oc1=O,inactive,
COc1ccc2c(C)cc(SCC(=O)N3CCOCC3)nc2c1,"inconclusive: 12.6 µM [fluorescent, side channel, partial curve]",
CCOC(=O)C1CCN(Cc2cc(C(C)C)c(O)c(C(C)C)c2)CC1,"inconclusive: 39.8 µM [inhibitor, single point]",
FC(F)(F)c1ccccc1NC(=S)Nc1cccc(Cl)c1,"inconclusive: 25.1 µM [fluorescent, side channel, partial curve]",
O=C1c2ccccc2NC(c2cccc(Cl)c2)N1N=C1CCCCCC1 (stereo not given),inactive,
O=C(NCCCCc1ccccc1)C12CN(Cc3ccccc3)CC1C(c1ccc([N+](=O)[O-])cc1)=NO2 (stereo not given),"inconclusive: 3.98 µM [quencher, side channel, partial curve]",
N#Cc1c(-c2ccccc2)cc(-c2ccco2)c(C#N)c1N,"inconclusive: 63.1 µM [fluorescent, side channel, single point]",
CSc1ccc(CN2CCN(Cc3ccc([N+](=O)[O-])cc3)CC2)cc1,inactive,

# Reformatted: entries from further up.
SMILES	Potency	activity change, negative = inhibition
CCn1c(C(C)NS(=O)(=O)c2ccc(Cl)cc2)n[nH]c1=S (stereo not given)	inconclusive: 8.91 µM [quencher, side channel, single point]	
Cc1cc(=O)[nH]c(-c2ccccc2)n1	inactive	
COc1cccc(OC)c1C(=O)N1CCN(Cc2ccccc2C(F)(F)F)CC1	inactive	
CCN(CC)CCNC(=S)Nc1ccc2nc(N3CCN(C)CC3)cc(C)c2c1	inconclusive: 4.47 µM [fluorescent, side channel, partial curve]	
CCC(C(=O)N1CCC(C(N)=O)CC1)n1nc(C)n2c(cc3occc32)c1=O (stereo not given)	inconclusive: 8.91 µM [quencher, side channel, single point]	
CC1=C(C(=O)OCC2CCCO2)C(c2ccccc2)C2=C(CCCC2=O)N1 (stereo not given)	inactive	
CC(=O)Nc1ccc(NC(=O)c2cc(-n3cnnc3)ccc2Cl)cc1	inconclusive: 35.5 µM [fluorescent, side channel, single point]	
CCOC(=O)C1CN(S(C)(=O)=O)c2cc(CC(=O)OC)ccc2O1 (stereo not given)	inconclusive: 63.1 µM [quencher, side channel, single point]	
O=[N+]([O-])c1ccc(/C=C/C2=NN(c3ccccc3)C(c3ccco3)C2)cc1 (stereo not given)	inconclusive: 3.16 µM [fluorescent, full curve]	
COc1ccc(/C=C2/C(=O)ON=C2C)cc1Cl	inconclusive: 11.2 µM [fluorescent, side channel, single point]	
CCN(CC)CCCN(C(=O)c1ccc(Br)cc1)c1nc(-c2ccc(OC)cc2)cs1	inconclusive: 22.4 µM [quencher, side channel, partial curve]	
CS(=O)(=O)c1ccc(C(=O)Nc2ccc(N3CCCCC3)cc2)c(Cl)c1		inconclusive: 1.73% [phenotype inactive]
Cc1cc(C)n(-c2ccc(NC(=O)C3CCN(Cc4cc(C)c(C)o4)CC3)cc2)n1	inconclusive: 35.5 µM [fluorescent, side channel, single point]	
COc1ccc(CCN=C(N)NS(=O)(=O)c2ccc(C)c(C)c2)cc1OC	inconclusive: 14.1 µM [fluorescent, side channel, single point]	
Cn1c2ccc(F)cc2c2nc3ccccc3nc21	inconclusive: 25.1 µM [fluorescent, side channel, partial curve]	
COc1ccccc1C(=O)Nc1ccnn1C1CCN(CCCC2CCCC2)CC1	inactive	
CCOc1ccc(-n2cc(-c3ccccc3)c3c(SC(C)C(=O)OC)ncnc32)cc1 (stereo not given)	inactive	
CN(CCO)c1ncnc2c1sc1nc(N3CCOCC3)c3c(c12)CCC3	inconclusive: 25.1 µM [quencher, side channel, single point]	
C=CCSc1nnc2c(n1)OC(c1ccco1)Nc1ccccc1-2 (stereo not given)	inconclusive: 6.31 µM [fluorescent, side channel, full curve, poor fit]	

# Further records:

SMILES,Potency,"activity change, negative = inhibition"
O=C1NC(=S)S/C1=C\C=C\c1ccc([N+](=O)[O-])o1,"inconclusive: 35.5 µM [inhibitor, partial curve]",
CC1=Nn2c(nnc2-c2ccco2)SC1,inactive,
CC(=O)c1c(C)[nH]c(C2=NNC(=NC(C)(C)C)SC2)c1C,"inconclusive: 22.4 µM [quencher, side channel, full curve, poor fit]",
Cc1ccc2c(C)ccc(O)c2n1,"inconclusive: 11.2 µM [inhibitor, full curve]",
Cc1cn2c(N)c(C=C3C=C(Cl)C(=O)C(Cl)=C3)c(=O)nc2s1,"inconclusive: 12.6 µM [fluorescent, side channel, full curve]",
CCC(=O)Nc1ccccc1C(=O)OCc1ccc(C(=O)c2ccccc2)cc1,inactive,
CN(C)c1ccc(/C=C2\C(=N)N3C(=NC2=O)Sc2cc(S(C)(=O)=O)ccc23)cc1,"inconclusive: 14.1 µM [fluorescent, side channel, full curve]",
O=C(NC1CCN(Cc2ccccc2)CC1)c1cccc(Br)c1,"inconclusive: 28.2 µM [fluorescent, side channel, partial curve]",
COc1ccc(-c2cc(C)no2)cc1S(=O)(=O)N1CC(=O)Nc2ccccc21,"inconclusive: 70.8 µM [fluorescent, single point]",
COc1cccc(-c2cc(C(F)(F)F)nc(N3CCC(C)CC3)n2)c1,inactive,
O=c1[nH]c(CSc2ncc(C(F)(F)F)cc2Cl)nc2ccccc12,"inconclusive: 35.5 µM [fluorescent, side channel, single point]",
COC1=CC(=Cc2c(N)n3nc(CC(=O)N4CCCCC4)sc3nc2=O)C=C(OC)C1=O,"inconclusive: 1.78 µM [fluorescent, side channel, full curve]",
O=C(O)c1cc(-n2nnnc2SCc2ccc([N+](=O)[O-])cc2)ccc1Cl,"inconclusive: 79.4 µM [inhibitor, single point]",
CC(=O)c1ccc(NC(=O)Nc2cccnc2)cc1,inactive,
COc1ccc(OC)c(NC(=O)c2nc(S(=O)(=O)Cc3ccccc3)ncc2Cl)c1,"inconclusive: 25.1 µM [quencher, side channel, partial curve]",
Fc1cc(Cl)ccc1NC1=NCCCCC1,"inconclusive: 10 µM [inhibitor, single point]",
CC(C)C(=O)N(c1cc2sc(=O)oc2c2ccccc12)S(=O)(=O)c1cccs1,"inconclusive: 1.26 µM [fluorescent, side channel, full curve, poor fit]",
CCC1Cc2c(nc(N)c3c(N)nc(N4CCCCC4)c(C#N)c23)O1 (stereo not given),inactive,
O=C(Nc1ccc(Cl)c(Cl)c1)Nc1nnc(-c2ccncc2)s1,inactive,
Cc1cc(C=C2C(=O)c3ccccc3C2=O)c(C)n1C,inactive,
COc1ccc2oc(C(=O)OCC(=O)N(CCC#N)c3ccccc3)c(C)c2c1,inactive,
